{"sequences": {"note": "By UniProt entry, the sequences of proteins in these tests, tags left out. Residues count along the entry.", "UniProt Q7SIB2, residues 1441-1669": "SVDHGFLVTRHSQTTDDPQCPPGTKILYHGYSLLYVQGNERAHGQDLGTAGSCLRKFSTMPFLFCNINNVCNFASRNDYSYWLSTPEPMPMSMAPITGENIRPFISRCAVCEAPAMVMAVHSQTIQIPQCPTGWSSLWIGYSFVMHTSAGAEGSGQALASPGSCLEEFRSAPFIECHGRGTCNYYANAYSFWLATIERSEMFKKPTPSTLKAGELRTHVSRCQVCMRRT"}, "source": "paper PMC6527180", "about": "“A chloride ring is an ancient evolutionary innovation mediating the assembly of the collagen IV scaffold of basement membranes” (The Journal of Biological Chemistry, 2019)", "target": "bovine α1 NC1 monomer (collagen IV α1-chain NC1 domain from bovine lens basement membrane) (bovine) (UniProt Q7SIB2)", "experiment": "condition: only Cl−-free buffer (25 mM Tris acetate pH 7.5, 150 mM sodium acetate); SEC; Superdex 200 Increase 10/300 GL, Cl−-free buffer: 25 mM Tris acetate pH 7.5, 150 mM sodium acetate (TNA), 0.5 ml/min; both purified", "note": "These are yes or no findings as the source states them, for the method shown.", "data": [{"binder": "bovine α2 NC1 monomer (collagen IV α2-chain NC1 domain from bovine lens basement membrane) (domain or fragment, collagen IV α2-chain NC1 domain, bovine, monomer from tissue-extracted NC1 hexamer; Used as a mixture with the α1 NC1 monomer; also called tissue-derived α2 NC1 monomer; NC1 monomers; source: purified from bovine lens basement membrane) ISIGYLLVKHSQTDQEPMCPVGMNKLWSGYSLLYFEGQEKAHNQDLGLAGSCLARFSTMPFLYCNPGDVCYYASRNDKSYWLSTTAPLPMMPVAEEDIRPYISRCSVCEAPAVAIAVHSQDVSIPHCPAGWRSLWIGYSFLMHTAAGDEGGGQSLVSPGSCLEDFRATPFIECNGARGTCHYYANKYSFWLTTIPEQSFQGTPSADTLKAGLIRTHISRCQVCMKNL", "values": [{"measurement": "binding", "value": "no binding"}]}]}
